PubChem BioAssay AID1224831 – NIAID – 2016
Assay: 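Genes that support or restrain LPS-induced TNF-alpha reporter activity in macrophage-like cells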 (follow-up of hits). Cell system: human THP-1 B5 monocytic leukaemia cells carrying a TNF promoter luciferase reporter, made macrophage-like with PMA. Knock-down reagent: single siRNA against human genes, 50 nM. Duration: about 68 h of knock-down, then 4 h LPS. Conditions: LPS (Salmonella minnesota, TLR-grade) at 10 ng/ml for 4 h; PMA 5 ng/ml present during knock-down. Detection: 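Firefly to renilla luciferase ratio of a TNF promoter reporter after 4 h LPS, scaled to plate median, turned into robust z-score, averaged over replicates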. Direction: TNF reporter z-score: higher = stronger LPS-induced TNF reporter signal; z-score, median over gene's siRNAs: higher = stronger TNF reporter signal across the gene's siRNAs. Hit rule: 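Two-sided call: reduced or raised TNF reporter signal counts as active once mean z reaches about -1 or below, or about 1.5 or above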. Calls: active = changed TNF reporter (either direction); inactive = little change.
In all, the deposit lists about 3,500 reagents; below is an unselected part. In the full data, 731 (21%) are marked active. 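Active means either lowered or raised reporter signal; the gene-median score did not drive the per-siRNA calls.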 Unmarked entries are inactive. Reagent sequences are not shown.

no.	gene knocked down	PubChem SID	TNF reporter z-score, replicate mean	z-score, median over gene's siRNAs
1	SKIC8	SID315487041	0.15	0.26
2	SKIC8	SID315487042	-0.82	0.26
3	SKIC8	SID315487043	0.71	0.26
4	SKIC8	SID315487044	0.37	0.26
5	SKIC8	SID315487045	0.96	0.26
6	SKIC8	SID315487046	-0.46	0.26
7	SPICE1	SID315487890	-2.11 (active)	0.22
8	SPICE1	SID315487891	0.18	0.22
9	SPICE1	SID315487892	0.26	0.22
10	SPICE1	SID315487893	0.58	0.22
11	SPICE1	SID315487894	0.42	0.22
12	SPICE1	SID315487895	-0.29	0.22
13	USPL1	SID315483420	-1.34 (active)	-1.17
14	USPL1	SID315483421	-0.99	-1.17
15	USPL1	SID315483422	-1.39 (active)	-1.17
16	USPL1	SID315483423	-0.67	-1.17
17	USPL1	SID315483424	-1.38 (active)	-1.17
18	USPL1	SID315483425	-0.87	-1.17
19	AGTR2	SID315482040	1.83 (active)	0.185
20	AGTR2	SID315482041	-0.44	0.185
21	AGTR2	SID315482042	-0.6	0.185
22	AGTR2	SID315482043	0.81	0.185
23	AGTR2	SID315482044	1.12	0.185
24	AGTR2	SID315482045	-0.54	0.185
25	ERC1	SID315485172	-0.12	-0.075
26	ERC1	SID315485173	0.45	-0.075
27	ERC1	SID315485174	-0.03	-0.075
28	ERC1	SID315485175	-0.14	-0.075
29	ERC1	SID315485176	2.91 (active)	-0.075
30	ERC1	SID315485177	-0.15	-0.075
31	NKRF	SID315485907	0.49	0.15
32	NKRF	SID315485908	-0.64	0.15
33	NKRF	SID315485909	-0.19	0.15
34	NKRF	SID315485910	1.67 (active)	0.15
35	NKRF	SID315485911	0.54	0.15
36	NKRF	SID315485912	-0.62	0.15
37	GIMAP8	SID315487902	-0.24	0.66
38	GIMAP8	SID315487903	0.4	0.66
39	GIMAP8	SID315487904	3.27 (active)	0.66
40	GIMAP8	SID315487905	0.92	0.66
41	GIMAP8	SID315487906	0.36	0.66
42	GIMAP8	SID315487907	2.73 (active)	0.66
43	OR5M9	SID315489189	-0.35	-0.45
44	OR5M9	SID315489190	-0.09	-0.45
45	OR5M9	SID315489191	-0.56	-0.45
46	OR5M9	SID315489192	0.57	-0.45
47	OR5M9	SID315489193	-1.12 (active)	-0.45
48	OR5M9	SID315489194	-0.55	-0.45
49	LYSMD3	SID315487620	-0.73	-0.005
50	LYSMD3	SID315487621	1.74 (active)	-0.005
51	LYSMD3	SID315487622	-0.63	-0.005
52	LYSMD3	SID315487623	0.58	-0.005
53	LYSMD3	SID315487624	1.32	-0.005
54	LYSMD3	SID315487625	-0.59	-0.005
55	PHOX2B	SID315483150	0.78	-0.16
56	PHOX2B	SID315483151	-1.35 (active)	-0.16
57	PHOX2B	SID315483152	0.85	-0.16
58	PHOX2B	SID315483153	-0.93	-0.16
59	PHOX2B	SID315483154	-0.08	-0.16
60	PHOX2B	SID315483155	-0.24	-0.16
61	NEXMIF	SID315489063	1.56 (active)	0.23
62	NEXMIF	SID315489064	-0.15	0.23
63	NEXMIF	SID315489065	1.08	0.23
64	NEXMIF	SID315489066	0.19	0.23
65	NEXMIF	SID315489067	0.27	0.23
66	NEXMIF	SID315489068	0.08	0.23
67	SLC38A3	SID315483540	0.46	0.105
68	SLC38A3	SID315483541	0.78	0.105
69	SLC38A3	SID315483542	1.91 (active)	0.105
70	SLC38A3	SID315483543	-0.78	0.105
71	SLC38A3	SID315483544	-0.25	0.105
72	SLC38A3	SID315483545	-0.43	0.105
73	CCNL2	SID315487107	1.87 (active)	1.38
74	CCNL2	SID315487108	0.88	1.38
75	CCNL2	SID315487109	0.41	1.38
76	CCNL2	SID315487110	0.18	1.38
77	CCNL2	SID315487111	4.79 (active)	1.38
78	CCNL2	SID315487112	3.97 (active)	1.38
79	DMRTC1	SID315486225	-0.13	-0.36
80	DMRTC1	SID315486226	-0.63	-0.36
81	DMRTC1	SID315486227	-0.53	-0.36
82	DMRTC1	SID315486228	-0.19	-0.36
83	DMRTC1	SID315486229	2.82 (active)	-0.36
84	DMRTC1	SID315486230	-0.76	-0.36

Sorted by “z-score, median over gene's siRNAs” (low to high): some entries from above.
gene knocked down	PubChem SID	TNF reporter z-score, replicate mean	z-score, median over gene's siRNAs
DMRTC1	SID315486225	-0.13	-0.36
DMRTC1	SID315486226	-0.63	-0.36
DMRTC1	SID315486227	-0.53	-0.36
DMRTC1	SID315486228	-0.19	-0.36
DMRTC1	SID315486229	2.82 (active)	-0.36
SLC38A3	SID315483544	-0.25	0.105
SLC38A3	SID315483545	-0.43	0.105
CCNL2	SID315487107	1.87 (active)	1.38
CCNL2	SID315487108	0.88	1.38
CCNL2	SID315487109	0.41	1.38
CCNL2	SID315487110	0.18	1.38
CCNL2	SID315487111	4.79 (active)	1.38
CCNL2	SID315487112	3.97 (active)	1.38
